Assay results reported in paper PMC4428065.
No constants are given. Whether binding was seen depends on the method and setting.

Molecular target: T1, DE-ETIOLATED1 (DET1), full-length, yeast two-hybrid bait (Arabidopsis thaliana) (UniProt P48732)
T1 sequence: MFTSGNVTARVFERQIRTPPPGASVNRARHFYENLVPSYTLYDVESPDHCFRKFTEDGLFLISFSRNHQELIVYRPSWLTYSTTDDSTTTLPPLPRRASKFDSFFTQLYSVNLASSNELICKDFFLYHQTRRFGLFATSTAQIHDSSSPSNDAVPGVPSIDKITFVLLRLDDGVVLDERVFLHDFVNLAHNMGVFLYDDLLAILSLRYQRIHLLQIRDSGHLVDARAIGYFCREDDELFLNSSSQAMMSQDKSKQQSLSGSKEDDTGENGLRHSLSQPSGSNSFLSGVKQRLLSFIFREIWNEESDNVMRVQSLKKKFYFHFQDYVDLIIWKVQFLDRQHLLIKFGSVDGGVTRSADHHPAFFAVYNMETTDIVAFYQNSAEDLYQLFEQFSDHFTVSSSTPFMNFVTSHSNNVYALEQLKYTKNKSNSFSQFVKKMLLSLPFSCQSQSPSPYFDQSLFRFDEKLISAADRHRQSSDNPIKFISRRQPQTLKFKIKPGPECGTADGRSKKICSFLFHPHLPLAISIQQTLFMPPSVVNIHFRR
Test: two-hybrid; … GAL4 two-hybrid system 3 (pGBKT7 bait, pGADT7 prey) in S. cerevisiae AH109; growth on media lacking adenine, leucine, histidine and tryptophan; beta-galactosidase activity; full-length DET1 as bait in Figure 4b

Row | Substance | binding
1 | CRY1 C-terminus (CCT1), yeast two-hybrid fusion (Arabidopsis thaliana) (domain or fragment) | no binding
2 | CRY2 C-terminus (CCT2), yeast two-hybrid fusion (Arabidopsis thaliana) (domain or fragment) | no binding
